The supplement of paper PMC6078165

Tested on: BT20
Assay: relative JC-1 red fluorescence (viability) vs pre-drug, coculture with fibroblast (fraction); higher = more viable cancer cells
Method: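 JC-1 labelled TNBC cells cocultured 1:1 (1,500 cells each) with CellTrace Violet stained primary or stromal fibroblasts in 384-well plates in FluoroBrite medium, treated with one of 42 anticancer drugs at 0.1, 1, 10 or 100 uM. JC-1 red fluorescence (mitochondrial integrity in cancer cells only) was read by plate reader every 8 h for 72 h. Values are normalised to each well's pre-drug value. The stock of one drug was tenfold lower, so its dose labels may be too high.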

Nc1ncn([C@@H]2O[C@H](CO)[C@@H](O)[C@H]2O)c(=O)n1 [Azacitidine]
relative JC-1 red fluorescence
Details	8 h	16 h	24 h	32 h	40 h	48 h	56 h	64 h	72 h
0.1 µM, coculture fibroblast: C12385	0.8879	0.839	0.81	0.748	0.684	0.666	0.646	0.641	0.632
0.1 µM, coculture fibroblast: H6013	0.895	0.812	0.853	0.8768	0.856	0.8	0.841	0.911	0.929
0.1 µM, coculture fibroblast: H6019	0.887	0.844	0.869	0.823	0.78	0.764	0.73	0.703	0.679
0.1 µM, coculture fibroblast: H6076	0.943	0.9434	0.886	0.858	0.843	0.839	0.844	0.841	0.8401
0.1 µM, coculture fibroblast: H6231	0.964	0.878	0.815	0.762	0.752	0.719	0.699	0.703	0.698
0.1 µM, coculture fibroblast: HADF	0.978	0.823	0.923	0.825	0.888	0.879	0.808	0.82	0.805
0.1 µM, coculture fibroblast: HCFa	0.9191	0.885	0.863	0.806	0.772	0.749	0.731	0.716	0.682
0.1 µM, coculture fibroblast: HCPF	0.845	0.91761	0.842	0.8	0.776	0.746	0.72	0.735	0.711
0.1 µM, coculture fibroblast: HHSteC	0.9413	0.912	0.906	0.835	0.797	0.77	0.756	0.737	0.715
0.1 µM, coculture fibroblast: HMF	0.962	0.916	0.838	0.803	0.776	0.741	0.719	0.709	0.705
0.1 µM, coculture fibroblast: HPFa	0.912	0.896	0.919	0.857	0.85	0.824	0.813	0.807	0.763
0.1 µM, coculture fibroblast: HUF	0.899	0.822	0.789	0.697	0.643	0.609	0.588	0.58	0.569
0.1 µM, coculture fibroblast: Hs5	0.762	0.952	0.912	0.883	0.8576	0.8338	0.81674	0.792	0.779
0.1 µM, coculture fibroblast: Hs27A	0.932	0.93	0.858	0.842	0.943	0.946	0.9712	0.983	0.952
0.1 µM, coculture fibroblast: Hs343T	0.903	0.906	0.82	0.754	0.697	0.66	0.6035	0.584	0.554
0.1 µM, coculture fibroblast: WS1	0.8446	0.796	0.771	0.707	0.6496	0.6261	0.6	0.584	0.572
1 µM, coculture fibroblast: C12385	0.8867	0.835	0.856	0.811	0.775	0.766	0.762	0.773	0.768
1 µM, coculture fibroblast: H6013	0.908	0.835	0.823	0.769	0.719	0.695	0.685	0.664	0.653
1 µM, coculture fibroblast: H6019	0.823	0.8002	0.7829	0.728	0.68	0.657	0.629	0.605	0.586
1 µM, coculture fibroblast: H6076	0.966	0.903	0.837	0.81281	0.785	0.781	0.773	0.772	0.765
1 µM, coculture fibroblast: H6231	0.814	0.923	0.80014	0.73945	0.68	0.624	0.583	0.55369	0.5349
1 µM, coculture fibroblast: HADF	0.751	0.93	0.84	0.8	0.767	0.718	0.691	0.664	0.631
1 µM, coculture fibroblast: HCFa	0.901	0.8354	0.796	0.739	0.681	0.636	0.595	0.564	0.519
1 µM, coculture fibroblast: HCPF	0.94	0.867	0.839	0.807	0.774	0.748	0.716	0.713	0.685
1 µM, coculture fibroblast: HHSteC	0.909	0.839	0.8078	0.731	0.685	0.64574	0.61608	0.591	0.563
1 µM, coculture fibroblast: HMF	0.927	0.844	0.773	0.7164	0.68	0.642	0.612	0.591	0.575
1 µM, coculture fibroblast: HPFa	0.986	0.928	0.974	0.937	0.962	0.922	0.915	0.892	0.843
1 µM, coculture fibroblast: HUF	0.897	0.814	0.771	0.675	0.623	0.575	0.548	0.53	0.512
1 µM, coculture fibroblast: Hs5	0.92	0.856	0.824	0.795	0.793	0.767	0.764	0.748	0.729
1 µM, coculture fibroblast: Hs27A	0.8644	0.7613	0.9106	0.943	0.923	0.904	0.898	0.877	0.834
1 µM, coculture fibroblast: Hs343T	0.9962	0.868	0.797	0.742	0.691	0.646	0.605	0.59	0.555
1 µM, coculture fibroblast: WS1	0.869	0.802	0.804	0.749	0.706	0.688	0.668	0.65	0.648

Values are relative to the signal before dosing, not to a vehicle control; the signal also falls without drug.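 Fibroblast labels denote human fibroblasts, mainly primary ones from uterus (C12385, HUF), lung (H6013), bone (Hs27A), adrenal (HADF) and skin (WS1), plus mammary HMF and breast cancer-associated Hs343T. Cancer cells are basal-like or mesenchymal-like triple-negative breast cancer lines. A hit is a response shift exceeding 3x replicate standard deviation. The tissue of the other fibroblasts is not given here.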
